No constants are given. Whether binding was seen depends on the method and setting. Binding can be weak; no strength is given.
Biological target: cynomolgus monkey OX40 (R&D, Cat. 10311-OX) (cynomolgus monkey)
Assay: ELISA, cynomolgus monkey OX40 coated at 0.5 ug/ml, serially diluted antibody, goat anti-human Fab secondary antibody, O.D. 450 nm

B1: O410 (antibody, human IgG1, lambda, V domains shown)
VH: EVQLLESGGGLVQPGGSLRLSCAASGFTFSDYYMSWVRQAPGKGLEWVSGIYSDGSRKYYADSVKGRFTISRDNSKNTLYLQMNSLRAEDTAVYYCARHWSRFDYWGQGTLVTVSS
VL: QSVLTQPPSASGTPGQRVTISCSGSSSNIGSNYVTWYQQLPRTAPKLLIYYDSNRPSGVPDRFSGSKSGTSASLAISGLRSEDEADYYCGAWDDSLSGYVFGGGTKLTVLG
With B1 the binding was “binds”.

B2: O31C (antibody, human IgG1, lambda, V domains shown)
VH: EVQLLESGGGLVQPGGSLRLSCAASGFTFSDYDMSWVRQAPGKGLEWVSSISPSSGSIYYADSVKGRFTISRDNSKNTLYLQMNSLRAEDTAVYYCAKDSIWCTNSRCYYDNAMDVWGQGTLVTVSS
VL: QSVLTQPPSASGTPGQRVTISCSGSSSNIGNNAVSWYQQLPGTAPKLLIYSDSNRPSGVPDRFSGSKSGTSASLAISGLRSEDEADYYCGSWDYSLSAYVFGGGTKLTVLG
In the case of B2, the binding is reported as “binds”.

Source: US20240182593A1
